Measurements taken from publication PMC8968920.
No constants are given. Whether binding was seen depends on the method and setting. Binding seen in cells or lysates may run through a third protein. Some entries that bind do so weakly or less than the wild type.

By UniProt entry, the sequences of proteins in these tests, tags left out.
UniProt Q9H4A6: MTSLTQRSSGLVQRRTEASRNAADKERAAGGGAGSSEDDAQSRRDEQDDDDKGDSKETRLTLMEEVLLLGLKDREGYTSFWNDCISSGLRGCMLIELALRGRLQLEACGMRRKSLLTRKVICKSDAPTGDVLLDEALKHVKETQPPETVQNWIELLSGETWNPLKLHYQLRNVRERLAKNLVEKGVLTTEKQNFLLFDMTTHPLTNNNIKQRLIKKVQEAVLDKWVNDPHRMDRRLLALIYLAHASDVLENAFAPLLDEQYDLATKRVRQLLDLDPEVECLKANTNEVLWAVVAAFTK
UniProt P40763: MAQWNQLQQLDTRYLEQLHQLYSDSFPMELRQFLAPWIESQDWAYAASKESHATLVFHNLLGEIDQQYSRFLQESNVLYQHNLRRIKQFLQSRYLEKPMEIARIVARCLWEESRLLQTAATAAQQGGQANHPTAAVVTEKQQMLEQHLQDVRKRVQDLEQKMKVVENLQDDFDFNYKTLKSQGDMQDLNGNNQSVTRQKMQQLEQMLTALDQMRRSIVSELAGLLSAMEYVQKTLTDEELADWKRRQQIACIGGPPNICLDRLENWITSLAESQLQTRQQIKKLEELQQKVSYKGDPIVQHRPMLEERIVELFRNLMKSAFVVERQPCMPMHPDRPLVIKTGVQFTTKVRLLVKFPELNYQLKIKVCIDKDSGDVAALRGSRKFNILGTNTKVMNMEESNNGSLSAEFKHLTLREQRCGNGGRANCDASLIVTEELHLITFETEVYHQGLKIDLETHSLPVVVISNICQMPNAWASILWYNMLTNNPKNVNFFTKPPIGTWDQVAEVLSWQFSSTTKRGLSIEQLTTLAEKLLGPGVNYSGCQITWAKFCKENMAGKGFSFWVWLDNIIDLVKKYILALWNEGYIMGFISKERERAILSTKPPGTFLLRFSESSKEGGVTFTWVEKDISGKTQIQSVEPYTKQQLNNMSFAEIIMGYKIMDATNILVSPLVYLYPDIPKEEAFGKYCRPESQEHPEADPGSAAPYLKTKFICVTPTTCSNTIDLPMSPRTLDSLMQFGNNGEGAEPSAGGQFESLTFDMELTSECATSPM

Target: Flag-tagged GOLPH3 (Golgi phosphoprotein 3) (UniProt Q9H4A6)
Test: co-IP; Flag-tagged GOLPH3 transiently transfected into HCT116 cells, 48 h; lysate (Cell Lysis Buffer, CST, with protease and phosphatase inhibitors) precipitated with anti-Flag magnet beads, 4°C, 4 h; western blot of the eluate

| Substance | binding |
| --- | --- |
| p-STAT3 (Tyr705) (from UniProt P40763 1-770) | binds |
| total STAT3 (signal transducer and activator of transcription 3) (from UniProt P40763 1-770) | binds |
